Data from patent US20130309248A1.
These are yes or no findings as the source states them, for the method shown. Some results given as binding are weak or reduced against the parent protein; the word gives no strength.

How the values were obtained:
[1] = molecular target: H3 HA of A/Hong Kong/1/1968 on cells (influenza A virus (H3N2)) (UniProt Q91MA7); experiment: FACS, HA-expressing cells, mAb added after all treatments
[2] = molecular target: H3 HA of A/Hong Kong/1/1968 on cells (influenza A virus (H3N2)) (UniProt Q91MA7); experiment: FACS, HA-expressing cells, mAb added after trypsin cleavage

B1: CR8041 (antibody, V domains shown)
VH: QVQLVQSGAEVKKPGASVKVSCQASGYTFTSFGLSWVRQAPGQGPEWMGWISAYNGEIKYAQKFQGRVSMTTDTSTRTAYMEVRSLRPDDTAVYYCAREPPLYFSSWSLDF
VL: EIVLTQSPGTLSLSPGERATLSCRASQSVSSNYLAWFQQKPGQAPRLLIYGASRRATGIPDRFSGSGSGTDFTLTISRLEPEDFAVYYCQQYDSSPRT
binding [1]: binds
binding [2]: binds
